The test system of the assay is BDF1 mice, P388 leukemia ip, median survival T/C. Description: NCI In Vivo Anticancer Drug Screen. Data for tumor model P388 Leukemia (intraperitoneal) in B6D2F1 (BDF1) mice. The following applies: T/C endpoint: median survival time, higher T/C = longer survival. Put shortly: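 Transplantable tumour in mice; compound vs vehicle dosing; survival scored; ratio of treated to control reported.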

[1] abbreviates: dose: 400.0 mg/kg/injection, schedule: Q04DX003 (ip), vehicle: gum acacia.

Molecules are shown by their SMILES. The list shows only some results of the screen, not a fair sample: it gathers tests that were run many times, whatever their T/C, doses with no T/C, and many T/C values between a quarter and a half above the control. Other doses and runs of a compound stand elsewhere. T/C gives the treated animals as a percentage of the vehicle group. Some doses have a count of surviving animals in place of a T/C: the source files T/C as zero there, which appears to mark a toxic dose or a test without result, not a measured value. Some doses without a T/C left all or most animals alive at the check, yet need not have been tolerated: survival well below the control is almost never listed, so the zero probably covers shortened survival too. Survivors were counted at the toxicity check, usually on the fifth day, unless a day is given; later deaths do not show. Schedules are NCI's codes, taken here to give the interval after Q, in days (D) or hours (H), and the number of doses after X. Where survival is the endpoint, the PubChem record calls one and a half times the control and up active, and a quarter to a half above the control has no call in these data; cut-offs in other NCI protocols can differ.

`O=[N+]([O-])c1ccc(S(=O)c2ccccc2)c2c1no[n+]2[O-]` (configuration not stated): the survivor count (dose: 90.0 mg/kg/injection, schedule: Q01DX009 (ip), vehicle: saline with Tween-80) is 2 of 7.
Take `Cc1ccccc1N=P(c1ccccc1)(c1ccccc1)c1ccccc1`: the survivor count (dose: 200.0 mg/kg/injection, schedule: Q01DX009 (ip), vehicle: gum acacia) is listed as 6 of 6 and the survivor count under setting [1] is recorded as 6 of 6.
For the compound `CCOC(=O)c1c[nH]c2cc(C(F)(F)F)ccc2c1=O`, the survivor count (dose: 50.0 mg/kg/injection, schedule: Q04DX003 (ip), vehicle: gum acacia) is recorded as 6 of 6; the survivor count (dose: 100.0 mg/kg/injection, schedule: Q04DX003 (ip), vehicle: gum acacia) was 6 of 6; the survivor count (dose: 200.0 mg/kg/injection, schedule: Q04DX003 (ip), vehicle: gum acacia) is recorded as 6 of 6; the survivor count under setting [1] is recorded as 6 of 6.
Consider `COc1ccc2cc1Oc1ccc(cc1)C[C@H]1c3cc(c(OC)cc3CCN1C)Oc1c(OC)c(OC)cc3c1[C@H](C2)N(C)CC3`, for which the survivor count (dose: 200.0 mg/kg/injection, schedule: Q04DX003 (ip), vehicle: saline) was 0 of 8.
Turning to `O=C(O)CC(=O)N=c1snc(Nc2ccccc2)n1-c1ccccc1`, the survivor count is listed as 6 of 6 (dose: 50.0 mg/kg/injection, schedule: Q01DX009 (ip), vehicle: Klucel (hydroxypropylcellulose) (HPC)); 6 of 6 (dose: 100.0 mg/kg/injection, schedule: Q01DX009 (ip), vehicle: Klucel (hydroxypropylcellulose) (HPC)); 6 of 6 (dose: 200.0 mg/kg/injection, schedule: Q01DX009 (ip), vehicle: Klucel (hydroxypropylcellulose) (HPC)).
In the case of `CCCCCC1(O)C2CCCC1CCC2` (configuration not stated), the T/C (dose: 200.0 mg/kg/injection, schedule: Q01DX001 (ip), vehicle: saline sonified) is 130 % of control.

The values above are taken from PubChem BioAssay AID328 (DTP/NCI, 2004).
